Taken from: PubChem BioAssay AID504784 (Drosophila RNAi Screening Center, 2011)
Assay: 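Fly genes whose silencing alters how much lipid cells keep in droplets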 (primary screen). System: Drosophila Kc167 embryonic cells. Reagents: long dsRNA against Drosophila genes, about 250 ng dsRNA per well. Timing: 4 days. Conditions: cells fed 400 µM oleic acid bound to BSA. Read-out: 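Microscope images give a droplet-to-nucleus area ratio, taken as log and converted to a screen-wide B-score; higher values mean greater lipid storage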. Scale: droplet/nuclear area B-score: higher = more stored lipid (overstorage).
The deposit covers about 17,000 reagents; below is a random part of those with a known target gene and a result. 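Each column is one replicate's B-score; the combined score over replicates was not deposited, so single values may mislead.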 Reagents against one gene are numbered here. A plus sign joins genes that one reagent is predicted to hit.

target gene	reagent no.	droplet/nuclear area B-score, replicate 1	droplet/nuclear area B-score, replicate 2	droplet/nuclear area B-score, replicate 3
Archease	1	0.0441	0.252	
CG1674	1	-0.372	-0.265	
Idh3a	1	-0.214	0.173	
Snm1	1	0.265	-0.0936	
Ir10a	1	2.04	0.00366	
Ir10a	2	-1.28	0.278	0.044
Ir10a	3	1.65	0.00885	-0.417
CG15563	1	0.0599	-0.088	
DUBAI + Tmem18	1	0.674	-0.00318	
CG14971	1	-1.57	0.668	
CG18265	1	0.936	1.12	
Or98P	1	1.04	-0.312	
ND-ACP	1	-0.651	-1.21	
Hacd2	1	0.0852	1.34	
gudu	1	-0.686	-3.2	
CG30002	1	-0.748	-0.648	
CrebA	1	-0.29	0.0301	-0.529
Klp61F	1	1.39	3.22	
Ada2a	1	-1.24	-3.29	
Ada2a	2	-1.47	-1.13	
ninaA	1	0.173	-0.00478	
CG31960	1	-0.242	-0.813	
eEF1alpha1	1	2.61	0.693	
Ir20a	1	2.42	-0.606	
ey	1	-0.677	0.279	
Dhdds	1	0.555	0.818	
CG30339	1	0.958	0.443	
cert	1	-1.36	-2.07	
Edem1	1	0.0142	0.674	
Got1	1	-0.531	0.00434	
CG7607	1	0.0888	-0.13	
CG34325	1	-0.714	-0.612	
CG34325	2	-0.154	0.00135	
CG5966	1	-0.0188	-0.336	0.433

5 entries from above, ordered by “droplet/nuclear area B-score, replicate 1”, descending:
target gene	reagent no.	droplet/nuclear area B-score, replicate 1	droplet/nuclear area B-score, replicate 2	droplet/nuclear area B-score, replicate 3
CG7607	1	0.0888	-0.13	
Edem1	1	0.0142	0.674	
Got1	1	-0.531	0.00434	
CG34325	1	-0.714	-0.612	
cert	1	-1.36	-2.07	
